These are yes or no findings as the source states them, for the method shown. Binding can be weak; no strength is given.
Biological target: T1, GABPα (UniProt Q06546)
T1 sequence: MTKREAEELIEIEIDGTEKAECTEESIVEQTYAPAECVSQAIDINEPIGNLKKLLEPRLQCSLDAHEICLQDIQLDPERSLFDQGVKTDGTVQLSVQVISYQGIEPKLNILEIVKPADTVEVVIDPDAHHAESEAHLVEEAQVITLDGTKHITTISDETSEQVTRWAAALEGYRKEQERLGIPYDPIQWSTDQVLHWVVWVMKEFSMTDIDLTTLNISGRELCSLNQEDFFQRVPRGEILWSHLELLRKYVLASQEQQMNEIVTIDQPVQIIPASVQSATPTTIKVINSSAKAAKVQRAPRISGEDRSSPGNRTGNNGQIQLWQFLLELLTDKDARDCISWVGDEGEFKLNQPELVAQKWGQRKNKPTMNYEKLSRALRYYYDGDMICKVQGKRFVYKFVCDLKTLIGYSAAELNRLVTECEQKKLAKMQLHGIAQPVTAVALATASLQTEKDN
Experiment: native gel or EMSA; in vitro translated GABPα, β and γ mixed with the 32P-labelled −51 ETS DNA probe; the protein complexes are seen on the DNA; binding buffer 2 mM HEPES-NaOH pH 7.9, 2% glycerol, 0.01 mM EDTA, 0.25 mM DTT, 5 mM KCl, 0.1 mg/ml BSA, poly dI-dC; 40 min at 4°C; 4% native polyacrylamide gel, 0.5× TBE; supershift with anti-GABP antibodies

GABPγ
binding: binds

From PMC3171469, “Multiple ETS Family Proteins Regulate PF4 Gene Expression by Binding to the Same ETS Binding Site”
